Measured values from US10686136B2, “Hole transporting material, OLED display panel and electronic device comprising the same” (SHANGHAI TIANMA AM-OLED CO., LTD., priority 2016, dated 2020).

Columns and labels:
[1] = Crosstalk test of OLED display panel (LGreen/LBlue); details: intensity ratio of green light of adjacent pixels when blue light intensity was 0.1 Cd/m^2, dark room
Method: Performance tests of the OLED display panels in the Examples and Comparison Examples were carried out.
(2) Crosstalk test method: the program being transferred to the B screen in a dark room, testing the intensity ratio of the green light of adjacent pixels when the blue light intensity was 0.1 Cd/m^2, LGreen/LBlue;

Mask cleaning effect = details: ultrasonic frequency 40 kHz, 25° C., MASK of the red light of hole transporting layer completely cleaned
Method: (3) Mask cleaning effect:
the time required for all the materials on the MASK of the red light of the hole transporting layer 203 to be completely cleaned at a fixed ultrasonic frequency of 40 kHz and at a temperature of 25° C.

SMILES | LGreen/LBlue [1] [%] | Mask cleaning time (Mask cleaning effect) [s]
Cc1ccc(-c2ccc(N(c3ccc(-c4ccccc4)cc3)c3ccc(-c4ccc(N(c5ccc(-c6ccccc6)cc5)c5ccc(-c6ccc(C)cc6)cc5)cc4)cc3)cc2)cc1 [Com. Example 2] | 1.8 | 60
Cc1ccc(-c2ccc(N(c3ccc(-c4ccccc4)cc3)c3ccc(-c4ccc(N(c5ccc(-c6ccccc6)cc5)c5ccc(-c6ccc(C)cc6)cc5)c5c4CCCC5)cc3)cc2)cc1 [Example 1] | 1.8 | 30
